Data as given in PubChem BioAssay AID1259405 (NCATS, 2018)
Here is a random part of about 50,000 reagents. Over the whole deposit, about 4,000 (8%) are marked active. 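Mouse siRNA library applied to hamster cells; one well for each siRNA.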 Reagents against one gene are numbered here. Reagent sequences are not shown.

- Screen: 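Mouse-designed siRNAs used to find CHO productivity engineering targets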 (primary screen)
- Cells: Chinese hamster CHO-K1 ovary cells with stable secreted eGFP expression
- Reagents: single siRNA against mouse genes, 0.8 pmol siRNA per well (2 µl of 400 nM stock)
- Timing: 3 days
- Measurement: 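Per-well intracellular GFP measured by laser scanning cytometry, plus viability from ATP luminescence, each relative to plate median of non-targeting control wells, in %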
- Reading the numbers: GFP, % of control: higher = more GFP per well, higher productivity; viability (ATP), % of control: higher = more viable cells (more ATP)
- Active means: 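Called active when intracellular GFP, relative to negative control, is at or above 120%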

target,siRNA no.,"GFP, % of control","viability (ATP), % of control",outcome
Slc16a7 (GeneID 20503),1,71.2,73.1,inactive
Slc16a7 (GeneID 20503),2,84.4,86.9,inactive
Slc16a7 (GeneID 20503),3,98.4,85.4,inactive
Hebp1 (GeneID 15199),1,62.4,82.4,inactive
Hebp1 (GeneID 15199),2,89.6,68.6,inactive
Hebp1 (GeneID 15199),3,104,86.7,inactive
Plekha6 (GeneID 240753),1,75.2,78.8,inactive
Plekha6 (GeneID 240753),2,91.4,40.4,inactive
Plekha6 (GeneID 240753),3,55.4,49.7,inactive
Defa-rs10 (GeneID 13219),1,59.3,83.4,inactive
Defa-rs10 (GeneID 13219),2,180,114,active
Defa-rs10 (GeneID 13219),3,97,57.7,inactive
Scg2 (GeneID 20254),1,77.4,66.7,inactive
Scg2 (GeneID 20254),2,73.3,67.7,inactive
Scg2 (GeneID 20254),3,94.7,90,inactive
Uck1 (GeneID 22245),1,52,58.2,inactive
Uck1 (GeneID 22245),2,57.3,82.3,inactive
Uck1 (GeneID 22245),3,94.3,91.4,inactive
Slc39a6 (GeneID 106957),1,95.5,98.3,inactive
Slc39a6 (GeneID 106957),2,44.8,34.7,inactive
Slc39a6 (GeneID 106957),3,98,84.9,inactive
Atp5mc2 (GeneID 67942),1,65.6,77.1,inactive
Atp5mc2 (GeneID 67942),2,68.8,99.2,inactive
Atp5mc2 (GeneID 67942),3,69.8,66,inactive
Fam50a (GeneID 108160),1,75.4,98.3,inactive
Fam50a (GeneID 108160),2,104,41.1,inactive
Fam50a (GeneID 108160),3,85.2,87.3,inactive
Serpinh1 (GeneID 12406),1,63.9,108,inactive
Serpinh1 (GeneID 12406),2,88.5,114,inactive
Serpinh1 (GeneID 12406),3,77.7,85.8,inactive
Ephb3 (GeneID 13845),1,58.1,69.7,inactive
Pigx (GeneID 72084),1,84.3,80.8,inactive
Pigx (GeneID 72084),2,60.6,79.9,inactive
Pigx (GeneID 72084),3,112,87.3,inactive
Tbx10 (GeneID 109575),1,197,95.5,active
Tbx10 (GeneID 109575),2,44.1,47,inactive
Tbx10 (GeneID 109575),3,34.7,52,inactive
Ergic3 (GeneID 66366),1,49,53.5,inactive
Ergic3 (GeneID 66366),2,79,64.6,inactive
Ergic3 (GeneID 66366),3,61,97.8,inactive
Tctn2 (GeneID 67978),1,99.6,80.4,inactive
Tctn2 (GeneID 67978),2,76.9,77.7,inactive
Tctn2 (GeneID 67978),3,55.6,72.2,inactive
Rflna (GeneID 73121),1,59.4,66.1,inactive
Rflna (GeneID 73121),2,81.2,80.8,inactive
Rflna (GeneID 73121),3,76.8,66.9,inactive
Rcn1 (GeneID 19672),1,97.9,65.3,inactive
Rcn1 (GeneID 19672),2,66,50.8,inactive
Tmem119 (GeneID 231633),1,88.5,92.8,inactive
Tmem119 (GeneID 231633),2,77.8,76.1,inactive
Tmem119 (GeneID 231633),3,95.8,139,inactive
Klk14 (GeneID 317653),1,84.6,70.6,inactive
Klk14 (GeneID 317653),2,45.4,72.5,inactive
Klk14 (GeneID 317653),3,48.8,57.1,inactive
Psors1c2 (GeneID 57390),1,98.5,43.6,inactive
Psors1c2 (GeneID 57390),2,73.6,61.8,inactive
Psors1c2 (GeneID 57390),3,136,92.5,active
F830045P16Rik (GeneID 228592),1,47.8,35.6,inactive
F830045P16Rik (GeneID 228592),2,55.9,82.1,inactive
F830045P16Rik (GeneID 228592),3,39.4,72.1,inactive
Or52i2 (GeneID 258749),1,80,70.4,inactive
Or52i2 (GeneID 258749),2,108,104,inactive
Or52i2 (GeneID 258749),3,53.7,73.3,inactive
Vps37d (GeneID 194309),1,71.2,83.6,inactive
Vps37d (GeneID 194309),2,99.7,93.7,inactive
Vps37d (GeneID 194309),3,72.6,74.6,inactive
Cacna1d (GeneID 12289),1,71.3,94.9,inactive
Cacna1d (GeneID 12289),2,101,77.4,inactive
Cacna1d (GeneID 12289),3,76.3,50.4,inactive
Polm (GeneID 54125),1,67.1,99.3,inactive
Polm (GeneID 54125),2,60.5,79.7,inactive
Polm (GeneID 54125),3,53.9,67.3,inactive
Aqr (GeneID 11834),1,251,63.5,active
Aqr (GeneID 11834),2,79.9,61.1,inactive
Aqr (GeneID 11834),3,74,61.4,inactive
Scp2 (GeneID 20280),1,50.8,42.9,inactive
Scp2 (GeneID 20280),2,68.4,80.8,inactive
Scp2 (GeneID 20280),3,38.7,48.4,inactive
Lenep (GeneID 57275),1,49.6,82,inactive
Lenep (GeneID 57275),2,95.9,110,inactive
Lenep (GeneID 57275),3,96.1,88.9,inactive
Cela1 (GeneID 109901),1,84.4,56,inactive
Cela1 (GeneID 109901),2,93.4,71.4,inactive
Cela1 (GeneID 109901),3,61.8,41.5,inactive
Rbbp5 (GeneID 213464),1,78.2,81.6,inactive
Rbbp5 (GeneID 213464),2,87.3,85.8,inactive
Ramac (GeneID 67148),1,80.7,56.3,inactive
Ramac (GeneID 67148),2,84.7,78.5,inactive
Ramac (GeneID 67148),3,54.5,65.4,inactive
Nr3c1 (GeneID 14815),1,111,109,inactive
Nr3c1 (GeneID 14815),2,69,93,inactive
Slc43a3 (GeneID 58207),1,75.7,65.8,inactive
Slc43a3 (GeneID 58207),2,61,49.1,inactive
Or9g4 (GeneID 258563),1,115,48.9,inactive
Or9g4 (GeneID 258563),2,69.7,70.8,inactive
Or9g4 (GeneID 258563),3,32.3,53.2,inactive
Hal (GeneID 15109),1,103,66,inactive
Hal (GeneID 15109),2,101,84.3,inactive
Vmn1r193 (GeneID 171259),1,33.4,50.7,inactive
Vmn1r193 (GeneID 171259),2,89.3,63.6,inactive
Vmn1r193 (GeneID 171259),3,85.4,88.4,inactive
Dus4l (GeneID 71916),1,51.6,36.1,inactive
Dus4l (GeneID 71916),2,74.3,95.9,inactive
Dus4l (GeneID 71916),3,47.9,63.5,inactive
Prkn (GeneID 50873),1,70.3,65.7,inactive
Prkn (GeneID 50873),2,95.5,83.5,inactive
Prkn (GeneID 50873),3,77.4,98.5,inactive

Records above whose gene name starts with E or e (4):
target,siRNA no.,"GFP, % of control","viability (ATP), % of control",outcome
Ephb3 (GeneID 13845),1,58.1,69.7,inactive
Ergic3 (GeneID 66366),1,49,53.5,inactive
Ergic3 (GeneID 66366),2,79,64.6,inactive
Ergic3 (GeneID 66366),3,61,97.8,inactive
